Results: paper PMC9314443
No constants are given. Whether binding was seen depends on the method and setting. In cells and extracts the contact can be indirect. Some binding calls cover weakened binding; strength is not graded here. Where a sequence is shown, tags or fusion partners need not be part of it.

Target: T1, full-length hamster HMGCR followed by three copies of the T7 epitope, HMGCR-T7 (WT) (hamster) (UniProt P00347)
T1 sequence: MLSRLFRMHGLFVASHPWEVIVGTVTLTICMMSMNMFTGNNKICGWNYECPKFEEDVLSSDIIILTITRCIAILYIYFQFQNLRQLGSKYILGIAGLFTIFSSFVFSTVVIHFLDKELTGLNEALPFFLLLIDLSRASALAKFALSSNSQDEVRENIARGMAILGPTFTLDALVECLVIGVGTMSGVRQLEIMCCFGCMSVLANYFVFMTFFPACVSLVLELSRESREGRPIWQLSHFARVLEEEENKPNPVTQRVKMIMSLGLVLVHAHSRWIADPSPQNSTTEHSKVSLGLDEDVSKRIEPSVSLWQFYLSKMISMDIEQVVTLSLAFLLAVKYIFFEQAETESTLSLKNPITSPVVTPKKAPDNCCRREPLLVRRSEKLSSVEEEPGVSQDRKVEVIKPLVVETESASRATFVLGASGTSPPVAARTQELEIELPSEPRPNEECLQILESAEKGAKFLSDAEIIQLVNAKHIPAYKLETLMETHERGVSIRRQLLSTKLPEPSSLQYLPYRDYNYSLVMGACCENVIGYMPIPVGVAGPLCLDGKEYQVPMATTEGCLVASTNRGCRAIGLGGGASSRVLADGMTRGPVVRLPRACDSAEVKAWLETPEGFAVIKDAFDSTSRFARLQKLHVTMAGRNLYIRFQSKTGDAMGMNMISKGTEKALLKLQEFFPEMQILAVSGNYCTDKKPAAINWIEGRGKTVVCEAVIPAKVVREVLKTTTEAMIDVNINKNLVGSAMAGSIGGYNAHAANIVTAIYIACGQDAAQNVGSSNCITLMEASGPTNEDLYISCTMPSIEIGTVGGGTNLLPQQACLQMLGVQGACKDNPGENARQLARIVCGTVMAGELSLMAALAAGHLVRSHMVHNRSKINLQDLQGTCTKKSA
Experiment: co-IP; transfected HMGCR-deficient UT-2 (CHO) cells depleted of sterols, MG-132 for 1 h, then with or without 1 µg/ml 25-HC for 30 min; lysed in PBS with 1% digitonin, precipitated with anti-T7-coupled beads; immunoblot with anti-T7 and IgG-9E10

binding: binds
B1: human Insig-1 followed by six copies of the Myc epitope (Insig-1-Myc) (protein, UniProt O15503 1-277)
chain: MPRLHDHFWSCSCAHSARRRGPPRASAAGLAAKVGEMINVSVSGPSLLAAHGAPDADPAPRGRSAAMSGPEPGSPYPNTWHHRLLQRSLVLFSVGVVLALVLNLLQIQRNVTLFPEEVIATIFSSAWWVPPCCGTAAAVVGLLYPCIDSHLGEPHKFKREWASVMRCIAVFVGINHASAKLDFANNVQLSLTLAALSLGLWWTFDRSRSGLGLGITIAFLATLITQFLVYNGVYQYTSPDFLYIRSWLPCIFFSGGVTVGNIGRQLAMGVPEKPHSD
